Results as given in US20080311111A1.
Substitutions are numbered along the chain they refer to. Results are given in words; binding and its absence hold for the method and conditions named. Some entries that bind do so weakly or less than the wild type.

By UniProt entry, the sequences of proteins in these tests, tags left out. Where a name states a change or a piece, a line headed by the entry shows the natural chain unless it says otherwise. Residues count along the entry.
UniProt P14778: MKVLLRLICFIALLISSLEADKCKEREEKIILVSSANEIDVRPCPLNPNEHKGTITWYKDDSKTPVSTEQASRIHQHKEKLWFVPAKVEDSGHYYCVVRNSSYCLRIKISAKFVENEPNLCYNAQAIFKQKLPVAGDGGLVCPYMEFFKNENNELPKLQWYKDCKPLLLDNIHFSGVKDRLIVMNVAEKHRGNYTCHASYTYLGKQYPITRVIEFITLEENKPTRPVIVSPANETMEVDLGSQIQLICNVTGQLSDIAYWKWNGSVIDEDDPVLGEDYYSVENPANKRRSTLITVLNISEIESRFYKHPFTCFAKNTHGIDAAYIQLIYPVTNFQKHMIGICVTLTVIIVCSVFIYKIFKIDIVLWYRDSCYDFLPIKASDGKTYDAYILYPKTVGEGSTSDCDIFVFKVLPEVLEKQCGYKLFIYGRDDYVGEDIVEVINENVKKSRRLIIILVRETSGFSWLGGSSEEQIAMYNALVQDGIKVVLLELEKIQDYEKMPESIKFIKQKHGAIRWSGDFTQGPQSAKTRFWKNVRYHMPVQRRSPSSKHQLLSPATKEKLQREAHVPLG
IL-1R1-Fc fusion protein (Axxora): residues 18-336 of P14778
recombinant IL-1R1 (R&D Systems): residues 18-332 of P14778

B1: DOM4-130-46 (protein)
VL: DIQMTQSPSSLSASVGDRVTITCRASQDIYLNLDWYQQKPGKAPKLLINFGSELQSGVPSRFSGSGSGTDFTLTISSLQPEDFATYYCQPSFYFPYTFGQGTKVEIRR
B2: DOM4-130-3 (protein)
VL: B1 VL with N49Y, F50G, G51T, E53N
B3: DOM4-130 (protein)
VL: B1 VL with D34N, N49Y, F50G, G51T, E53N, Y93L, F94Y

How the values were obtained:
[1] = molecular target: recombinant IL-1R1 (R&D Systems) (UniProt P14778); assay: SPR off-rate screening of expression supernatants on IL-1R1 CM5 chip
[2] = molecular target: IL-1R1-Fc fusion protein (Axxora) (UniProt P14778); assay: competition ELISA, IL-1R1-Fc coated, competitor 500 pM IL-1ra
[3] = molecular target: IL-1R1-Fc fusion protein (Axxora) (UniProt P14778); assay: competition ELISA, IL-1R1 coated plate, competitor 500 pM IL-1ra
[4] = molecular target: recombinant IL-1R1 (R&D Systems) (UniProt P14778); assay: supernatant receptor binding assay, IL-1R1 captured on ELISA plate, competitor IL-1β

Row | Binder | binding [1] | binding [2] | binding [3] | binding [4]
1 | B1 | binds | – | – | –
2 | B2 | binds | binds | binds | –
3 | B3 | – | – | – | binds
